# Data taken from PubChem BioAssay AID2417 (National Center for Advancing Translational Sciences (NCATS), 2010).
# The campaign covered roughly 140,000 compounds. About 4,300 (3.1%) were called active. Inconclusive results, whose numbers are uncertain, are shown with a selection of clear calls.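 Rule for the calls: active = readout at or below -70, meaning at least 70% loss of cells showing the perinucleolar compartment, a nuclear body marking cancer cells; inconclusive = readout between -30 and a set limit; inactive = the rest.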
# Experiment: High Content Assay for Compounds that inhibit the Assembly of the Perinucleolar Compartment;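 note: plate controls were DMSO wells for no effect and camptothecin positive control wells for full effect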
# Details: PC3M PTB-GFP, PNC prevalence imaging, 16 h; at 10 µM; active compounds read low
# Summary of the method: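 PC3M cells stably expressing PTB-GFP, 750–1000 cells/well, treated 16 h at 37 °C with compound (23 nl of library stock), in duplicate. After paraformaldehyde fixation and Hoechst stain, imaged at 20x; PNC prevalence scored by image analysis.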
row,SMILES,"activity change (PNC), negative = inhibition"
1,CCN1CCC2(CC1)C(C#N)=C(N)Oc1c2sc2nc(C)cc(C)c12,inconclusive: -35.6%
2,Cc1ccc(S(=O)(=O)N[C@H](C(=O)Oc2ccc3c(C(F)(F)F)cc(=O)oc3c2)c2ccccc2)cc1,inactive: -9.88%
3,N#CC(c1ccccn1)(c1ncc(C(F)(F)F)cc1Cl)N1CCOCC1 (stereo not given),active: -100%
4,CCOC(=O)c1ccc(NC(=O)C(=O)NCc2ccncc2)cc1,inconclusive: -36.5%
5,O=C(O)c1ccc(COc2ccccc2[N+](=O)[O-])o1,inconclusive: -40.8%
6,CC1CCN(C(=O)COC(=O)c2cc(Cl)cc(Cl)c2N)CC1,inconclusive: -32.5%
7,O=C(O)C1CCCN1c1ncnc2c1oc1ccccc12 (stereo not given),inconclusive: -34.2%
8,Nc1ccc2oc(-c3ccccc3Cl)cc(=O)c2c1O,inactive: -25.6%
9,O=c1ncn(-c2ccc(F)cc2)c2ncccc12,inactive: -12.4%
10,CCOC(=O)c1sc(NC(=O)c2cccnc2)c(C#N)c1C,inactive: -25.1%
11,CN(C)C(CNC(=S)Nc1ccccc1)c1cccnc1 (stereo not given),inconclusive: -37%
12,CN(C)/C=C1\C(=O)N(c2ccc(Cl)cc2)CS1(=O)=O,inconclusive: -35.4%
13,COc1cc(NC(=O)CS(=O)(=O)c2ccccc2)cc(OC)c1OC,inconclusive: -55.2%
14,CC(NC(=S)NCCc1ccccc1)C(c1cccs1)N1CCN(C)CC1 (stereo not given),inactive: 60.3%
15,COCc1c(C(=O)OCC(=O)N2c3ccccc3CC2C)oc2ccccc12 (stereo not given),inconclusive: -52.3%
16,CCOC(=O)c1[nH]c(C)c(C(=O)c2cc(F)ccc2F)c1C,active: -95%
17,Cc1ccc(N=c2ssnc2Cl)cc1,inconclusive: -41.8%
18,CCCNC1=C(N(C(C)=O)c2cccc(F)c2)C(=O)c2ccccc2C1=O,active: -90%
19,COC(=O)CSc1nnc(C)n1-c1cccc(C#N)c1,inconclusive: -44.7%
20,CC(C)C(=O)Nc1ccc(NC(=S)NC(=O)c2ccc([N+](=O)[O-])cc2)cc1,inactive: 86.2%
21,Cc1ccc(C)c(OCCn2cc(/C=C(\C#N)C(=O)NCC3CCCO3)c3ccccc32)c1 (stereo not given),inconclusive: -30.7%
22,COc1ccc(-n2cnc3ccccc32)cc1,inactive: -16.2%
23,O=C(/C=C/c1ccco1)N1CCN(C/C=C/c2ccccc2)CC1,inconclusive: -56.6%

# Exported bar-delimited: two of the compounds above.
row | SMILES | activity change (PNC), negative = inhibition
21 | Cc1ccc(C)c(OCCn2cc(/C=C(\C#N)C(=O)NCC3CCCO3)c3ccccc32)c1 (stereo not given) | inconclusive: -30.7%
22 | COc1ccc(-n2cnc3ccccc32)cc1 | inactive: -16.2%

# Additional records

row,SMILES,"activity change (PNC), negative = inhibition"
1,COc1ccc2[nH]c3nc(SCc4nnc(-c5ccc(C)cc5)o4)nnc3c2c1,inactive: 48.7%
2,O=S(=O)(NCCOCC(F)(F)F)c1ccc2oc3ccccc3c2c1,inactive: 16.9%
3,CCOC(=O)Cn1c(=O)oc2cc(S(=O)(=O)N3CCN(C(=O)c4ccco4)CC3)ccc21,inactive: -1.49%
4,O=C(NCc1ccccc1Cl)C1CCN(C(=O)c2sccc2-n2cccc2)CC1,inactive: 60.2%
5,CN(C)CCC#CC(O)(c1ccccc1)c1ccccc1,inactive: 50.2%
6,CC(C)Cc1c2c([nH]c(=S)c1C#N)CCCC2,inconclusive: -58.8%
7,Cc1cccc(N2C(=O)CC(N3CCC(c4nc5ccccc5[nH]4)CC3)C2=O)c1 (stereo not given),inactive: 41.8%
8,CC(C)(CS(=O)(=O)[O-])NC(=O)CC[N+](C)(C)CCO,inconclusive: -40.5%
9,CCC(NC(=O)Nn1cnnc1)(C(F)(F)F)C(F)(F)F,active: -100%
10,O=C(CSc1nc(-c2ccccc2)cs1)Nc1ccccc1[N+](=O)[O-],inactive: -12.9%
11,O=C(Nc1cccnc1)c1cccnc1Cl,inactive: -21.8%
12,CS/C(N)=N/N=C/c1ccc([N+](=O)[O-])cc1,inactive: 69.9%
13,Cc1ccc(-c2ccccc2NC(=O)CCl)o1,inconclusive: -56.6%
14,N#CCCN1CCN(C(=S)c2ccc(-c3ccc(Cl)cc3)o2)CC1,inconclusive: -33.2%
15,CCn1cc(C(=O)OCC(=O)c2cc(C)n(-c3ccc(OC(F)F)cc3)c2C)c(=O)c2ccc(C)nc21,inconclusive: -72.5%
16,CC(C)CCSc1nc(N)c(C#N)cc1C#N,inconclusive: -69.8%
17,COc1ccc(Cn2c(SCc3ccc(C)cc3)nc3cc(OC)c(OC)cc3c2=N)cc1Cl,inactive: 16.5%
18,COc1ccc(C(=N/O)/C(=N/O)c2ccc(OC)cc2)cc1,inactive: 8.59%
19,O=C(CCCSc1nc2ccccc2[nH]1)N1CCN(c2ccc([N+](=O)[O-])cc2)CC1,inconclusive: -37.1%
20,C=C(C)COc1ccc(-c2n[nH]c(C)c2-c2ccccc2)c(O)c1,inconclusive: -47.9%
21,CC(C)(C)NCCCCOc1ccc(F)cc1,inconclusive: -67.4%
22,CC(=O)Nc1ccc(S(=O)(=O)NC2=C(N3CCN(Cc4ccccc4)CC3)C(=O)c3ccccc3C2=O)cc1,inconclusive: -36.4%
